Library screening results

Chains of the proteins cited; added tags and fusions are not shown.
UniProt E9BF75, entry or part of it: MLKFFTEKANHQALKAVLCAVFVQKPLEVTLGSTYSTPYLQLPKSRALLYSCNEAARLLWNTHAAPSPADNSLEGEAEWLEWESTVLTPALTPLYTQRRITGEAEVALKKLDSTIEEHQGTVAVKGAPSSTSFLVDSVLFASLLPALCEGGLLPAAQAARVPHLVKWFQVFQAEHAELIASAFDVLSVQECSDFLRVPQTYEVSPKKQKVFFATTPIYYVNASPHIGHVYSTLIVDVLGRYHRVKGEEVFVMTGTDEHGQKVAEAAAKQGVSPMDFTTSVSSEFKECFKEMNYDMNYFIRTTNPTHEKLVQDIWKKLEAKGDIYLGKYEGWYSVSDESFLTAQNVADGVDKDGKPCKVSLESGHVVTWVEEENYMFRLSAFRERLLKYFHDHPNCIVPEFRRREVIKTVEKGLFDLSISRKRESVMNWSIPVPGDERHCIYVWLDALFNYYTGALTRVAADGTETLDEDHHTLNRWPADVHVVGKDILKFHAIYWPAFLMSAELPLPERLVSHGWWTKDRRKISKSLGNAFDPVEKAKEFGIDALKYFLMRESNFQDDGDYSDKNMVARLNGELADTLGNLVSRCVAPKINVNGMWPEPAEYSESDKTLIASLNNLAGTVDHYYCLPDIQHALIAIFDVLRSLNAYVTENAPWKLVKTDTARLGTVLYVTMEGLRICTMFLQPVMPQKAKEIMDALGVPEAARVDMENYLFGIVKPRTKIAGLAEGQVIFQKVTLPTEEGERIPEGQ

Data taken from ChEMBL document CHEMBL3988442, “University of Dundee, Small-Polar-MMV Screening Library” (2021).

Mtb heat-shock: 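Assay on Mycobacterium tuberculosis, filed only as a heat shock assay from Cornell; the read-out is not stated. The concentration is filed as 10 mM, unlikely as a test dose, so the dose is not known. Higher reads as stronger inhibition (inferred: compounds with an IC50 in retests scored well above the rest). About 69,000 compounds were tested under these conditions; 1.4% (about 930) showed 50% or more at least once.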
Mtb growth Cornell: 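Whole-cell assay for inhibitors of Mycobacterium tuberculosis growth, labelled Cornell in the record; the read-out is not stated. The concentration is filed as 10 mM, unlikely as a test dose, so the dose is not known. Higher means stronger inhibition (inferred from two other growth screens of the library). About 53,000 compounds were tested under these conditions; 1.7% (about 900) showed 50% or more at least once.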
LdMetRS: 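Primary screen of methionyl-tRNA synthetase; the read-out is not stated. Target: Methionyl-tRNA synthetase (putative), Leishmania donovani (UniProt E9BF75). The test concentration is not given. Values are per cent inhibition. Of about 68,000 compounds tested this way, about 24 (0.035%) reached 50% or more in at least one test.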

Results are percentages, as filed.
How 0% and 100% were set is not recorded. Most values in the screen are low, and negative values occur.
The compounds are a random part of those screened.
A dash means the value is not listed here; it may have been measured.

Compound	Mtb heat-shock	Mtb growth Cornell	LdMetRS
Cc1cnn(CC2CCCN2CC(=O)Nc2cc(C)nn2C)c1 (stereo unspecified)	19.4	1.826	9.408
COC(=O)C1CN(Cc2ccn(-c3ccc(F)cc3)n2)C[C@@H](C)O1 (stereo partly specified)	-170.6	-	6.344
CCc1c(C)nn(CC(=O)NC(C(=O)O)c2c(C)n[nH]c2C)c1C (stereo unspecified)	-2.937	-	9.966
O=C(C1=CCCC1)N1CCO[C@H]2[C@@H](OCC3CC3)CC[C@@H]21	-	-	9.623
O=C(O)C(F)(F)F.O=C(O)C(F)(F)F.[H][C@@]12CN(Cc3ccoc3)C[C@]1([H])C(=O)N(Cc1cccnc1)C2	-2.69	14.81	-
Cc1ccc(S(=O)(=O)N2CCC(N3CCCCC3)CC2)cc1C	-33.53	-37.33	0
Cc1occc1C(=O)N1CCC2(CC1)CN(Cc1nccs1)CCO2	-	-	5.914
Cc1nc(CN2CC3(CCN(c4ncccn4)C3)CC2=O)cs1 (stereo unspecified)	-	-	12.97
CNC(=O)[C@H]1C[C@@H]2CN(C(=O)Nc3ccccc3)C[C@H]1O2	-	-	14.12
Cc1ncsc1CN1CCn2c(COc3cccnc3)cnc2C1C (stereo unspecified)	-	-	22.63
O=C(C1=CCCC1)N1C[C@@H]2COC[C@]2(COCc2ccncc2)C1	-	-	14.47
O=C(Cn1ccc2sccc2c1=O)NC1CCCCC1	3.529	19.98	11.63
[H][C@@]12CCC(=O)N(CCc3c[nH]cn3)[C@]1([H])CCN(Cc1cc(C)c(C)o1)C2	-8.961	9.567	-
COCCCNC(=O)C1(NC(=O)c2ccc3[nH]ncc3c2)CCCC1	5.105	-	19.03
CCCN(CCc1ccccn1)C(=O)Cn1cc(C)cn1	-15.86	6.805	9.907
[H][C@@]12C[C@H](C(=O)Nc3cccnc3)[C@@]([H])(CN(CC(C)C)C1)O2	1.914	6.477	-
[H][C@]12CC[C@]([H])(CN(CC(=O)N(C)C)C1)N(Cc1ccc3nsnc3c1)C2	5.1	3.756	-
COCCN(C)C[C@@H]1CN(C(=O)c2cccc(Cl)c2)C[C@@H]1CO	20.15	27.73	15.77
COC(=O)[C@H]1CN(S(C)(=O)=O)CCN1S(C)(=O)=O	-0.4701	-	15.93
O=C(O)C(F)(F)F.[H][C@]12CCC[C@@H](CNc3ncccn3)[C@@]1([H])CN(Cc1cc[nH]n1)C2	14.04	-0.1896	-
[H][C@]12CC[C@]([H])(CN(C(=O)C3CCC3)C1)N(Cc1cnc(CC)nc1)C2	6.637	0.8783	-
[H][C@@]12CCCCN(Cc3ccccc3)[C@]1([H])CN(c1ncccn1)C2	-0.9896	7.832	-
CN(C(=O)Cn1nc(-c2cccs2)ccc1=O)C1CCS(=O)(=O)C1 (stereo unspecified)	-10.28	-20.12	2.113
COc1ncc(NCc2ccc(F)cc2)cc1C(N)=O	-2.743	13.37	7.542
c1nc(CCC2CCCN2)cc(N2CCCOCC2)n1 (stereo unspecified)	-	-	9.932
CCc1ccccc1C(=O)NS(=O)(=O)CCCC#N	14.45	-23.54	13.09
CN(C1CCCN(c2ccccn2)C1)S(C)(=O)=O (stereo unspecified)	-12.87	13.52	15.84
COCC(NC(=O)c1ccco1)c1cccc(C(F)(F)F)c1 (stereo unspecified)	-7.032	25.14	9.537
Cc1occc1C(=O)N1CCC(C(O)c2ccc(Cl)cc2)CC1 (stereo unspecified)	-31.63	11.45	11.68
CCc1ncncc1C(=O)N1CCCN(Cc2ccc(C)cc2)CC1	-18.72	-2.149	2.362
O=C(Cn1nc(-c2ccc(F)cc2)oc1=O)NCc1ccc(F)cc1	1.822	-	4.082
c1cc(-c2cncc(C3CCNCC3)n2)n[nH]1	-16.65	-7.212	15.82
c1cc(CN2CCN(Cc3cscn3)CC2)cs1	-5.381	-	13.89
CCCS(=O)(=O)NC(=O)c1cc(C)n(-c2ccccc2)n1	34.33	-12.01	3.064
Cc1nnc(N2CCCC3(CN(Cc4ccc(F)cc4)CCO3)C2)o1.O=C(O)C(F)(F)F (stereo unspecified)	-29.82	-5.528	-
CC(C)[C@H]1COC(=O)N1CC(=O)N(C)CCCn1cccn1	-11.95	-25.5	0.3484
CC(=O)N1CC(=O)N(c2ccsc2)CC12CCN(Cc1ccccn1)C2.O=C(O)C(F)(F)F (stereo unspecified)	-29.14	16.33	-
COc1ccccc1OCCNS(=O)(=O)N1CCOCC1	2.362	11.9	8.309
CN(C)Cc1noc2c1CN(Cc1ccsc1)CC2.O=C(O)C(F)(F)F.O=C(O)C(F)(F)F	-2.117	17.73	-
CNC(=O)C(C)CN(C)C(=O)Nc1cc(F)cc(Br)c1 (stereo unspecified)	11.63	72.87	15.09
[H][C@@]12CCN(C(=O)Cc3ccsc3)C[C@]1([H])[C@H](c1nnc(C)o1)CCO2	11.73	-18.3	-
CCn1ncc2c1C(COC)N(C(=O)c1cccs1)CC2 (stereo unspecified)	-	-	10.34

The last 2 entries again:

| Compound | Mtb heat-shock | Mtb growth Cornell | LdMetRS |
|---|---|---|---|
| `[H][C@@]12CCN(C(=O)Cc3ccsc3)C[C@]1([H])[C@H](c1nnc(C)o1)CCO2` | 11.73 | -18.3 | - |
| `CCn1ncc2c1C(COC)N(C(=O)c1cccs1)CC2` (stereo unspecified) | - | - | 10.34 |